Results are given in words; binding and its absence hold for the method and conditions named. Binding seen in cells or lysates may run through a third protein. Here binding means that the protein was enriched with, or labelled near, the bait; the list need not be complete.
B1: ZFP516 (protein, UniProt Q7TSH3 1-1157)
chain: MDRSREAEMELRRGPSPPRAGRSHEVDGDKAACHSCCICGKSFPFQSSLSQHMRKHTGEKPYKCPYCDHRASQKGNLKIHIRSHRTGTLIQGHEPEAGEAQLGEMRVSEGLDGCASPTKSTSACNRVLNGAVPMDGSKILLRSSRKEVEGAASAQEDTEATVPCSFCKSRFERKKDLELHVHQAHKPFKCRLCSYVTLREESLLSHIERDHITAQVPNGSEACVENGKPELSPGEFPCEVCGQAFSQTWFLKAHMKKHRGSFDHGCHICGRRFKEPWFLKNHMKAHGPKAGSKNRPKSELDPIATINNVVQEEVIVAGLSLYEVCTKCGNLFTNLDSLNAHNAIHRKVEASRIRAPAEEGDSEDPLDTKQFFLQCLNLTPYVAGDVSPGGQAGRRVAELDPVNSYQAWQLATRGKVAEPAEYLKYGTWDEALAGDVAFDKDKREYILVSQEKRKREQDAPATQAPPRKRASVPGDPMLSGHLDPRPTSRPNRRASATTGQGKSSECFECGKIFRTYHQMVLHSRVHRRARRDRDPEGDRAARARCGSLSEGDSASQPSSPGSACAIADSPGLAEEVVDDSGEEAVPEPASGGQPRHCCSSGEVTPTALSNGDQNHKLGNNLPEKDISEPKVGSAMPSVSILENSSRETTKGPEQHRYSLDLKMPAFHPKQEVPSTTDRVDFPASMEITSLQHTLDSQAGHSKEKLSDLHKEHCGVGKRASAPDLVPLDLSMRSSRDEPSGKEACSLQAALVIHPCPYCTHKTYYPEVLWMHKRIWHRVSCSSVAPPWTQPSGHKSIRSNLVFLTRSGRTGPPPALGGKECQPLLLSRFARTQVPGGAPGSKGSSSPLGVTTKAASMPKNKESHSGGPCALWASGPDGYRQTRAGHGQEPPSAAVQGPLAKPKQEGSSRLAPSPGSGSLSRSTTPTPSVITRVGAQPSANSKPVEKLGGPAVGTGFTPPNKHSAPDSLKAKFSPQPQGQPPLKGEGGSPLPPREPSVKAAQELRTLATCAAGSRGEAALQAPPGAPPTLNSAKQEPAAEGQEKRLDILSIFKTYIPKDFATLYQGWGVSSPGPEHRGTSLTGTPRTQAHQGDFVCVECGKSFHQPSQLRAHLRAHTVVFECDGPRDSEVHTASTDAPKQGRDHTTPGTVPAGPLRKGI

Chains of the proteins cited; added tags and fusions are not shown.
UniProt A2A935: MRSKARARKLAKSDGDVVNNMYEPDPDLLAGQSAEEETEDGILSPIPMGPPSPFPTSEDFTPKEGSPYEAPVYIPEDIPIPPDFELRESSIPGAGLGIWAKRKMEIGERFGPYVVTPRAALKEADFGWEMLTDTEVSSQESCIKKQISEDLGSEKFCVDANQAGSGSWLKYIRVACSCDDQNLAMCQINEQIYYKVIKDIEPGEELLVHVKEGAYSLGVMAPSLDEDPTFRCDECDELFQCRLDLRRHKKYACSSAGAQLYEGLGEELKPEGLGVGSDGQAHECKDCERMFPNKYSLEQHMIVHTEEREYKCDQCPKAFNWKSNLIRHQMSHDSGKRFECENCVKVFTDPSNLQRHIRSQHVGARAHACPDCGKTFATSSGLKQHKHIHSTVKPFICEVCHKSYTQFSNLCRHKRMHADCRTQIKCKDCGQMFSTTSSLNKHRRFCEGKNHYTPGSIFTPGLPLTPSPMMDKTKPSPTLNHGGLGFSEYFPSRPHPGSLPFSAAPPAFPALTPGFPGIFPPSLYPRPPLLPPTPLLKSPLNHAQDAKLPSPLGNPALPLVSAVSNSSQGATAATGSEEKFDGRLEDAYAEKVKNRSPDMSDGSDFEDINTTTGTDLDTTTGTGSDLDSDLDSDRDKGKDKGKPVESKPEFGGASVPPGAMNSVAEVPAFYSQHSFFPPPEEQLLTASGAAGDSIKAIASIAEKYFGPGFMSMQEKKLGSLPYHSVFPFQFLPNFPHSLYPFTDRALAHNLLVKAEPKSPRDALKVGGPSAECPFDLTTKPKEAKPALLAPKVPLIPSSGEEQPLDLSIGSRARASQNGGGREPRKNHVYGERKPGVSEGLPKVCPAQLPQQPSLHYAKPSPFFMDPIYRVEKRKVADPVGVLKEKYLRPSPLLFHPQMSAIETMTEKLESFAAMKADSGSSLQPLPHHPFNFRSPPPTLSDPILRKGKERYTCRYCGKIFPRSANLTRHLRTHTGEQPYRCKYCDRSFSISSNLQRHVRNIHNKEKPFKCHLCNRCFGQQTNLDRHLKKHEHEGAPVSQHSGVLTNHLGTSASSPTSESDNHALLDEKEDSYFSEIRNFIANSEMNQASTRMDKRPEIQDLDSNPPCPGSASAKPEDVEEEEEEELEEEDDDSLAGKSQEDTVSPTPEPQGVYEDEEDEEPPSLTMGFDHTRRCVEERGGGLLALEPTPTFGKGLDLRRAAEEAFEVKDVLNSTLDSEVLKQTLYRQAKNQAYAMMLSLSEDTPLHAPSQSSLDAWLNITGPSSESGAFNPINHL
UniProt P56546: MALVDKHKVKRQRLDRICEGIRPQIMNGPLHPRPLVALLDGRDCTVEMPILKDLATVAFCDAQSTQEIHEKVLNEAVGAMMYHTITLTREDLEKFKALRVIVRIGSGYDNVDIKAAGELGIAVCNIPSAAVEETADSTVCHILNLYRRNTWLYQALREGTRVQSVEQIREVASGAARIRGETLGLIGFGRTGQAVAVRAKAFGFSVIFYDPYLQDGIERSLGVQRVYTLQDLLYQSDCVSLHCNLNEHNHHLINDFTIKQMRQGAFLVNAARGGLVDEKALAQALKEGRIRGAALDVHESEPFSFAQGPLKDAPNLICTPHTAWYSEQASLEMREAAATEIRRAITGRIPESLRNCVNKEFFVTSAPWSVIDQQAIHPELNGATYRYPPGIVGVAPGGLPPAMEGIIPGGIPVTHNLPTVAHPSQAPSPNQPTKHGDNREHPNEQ
UniProt Q9EPK5: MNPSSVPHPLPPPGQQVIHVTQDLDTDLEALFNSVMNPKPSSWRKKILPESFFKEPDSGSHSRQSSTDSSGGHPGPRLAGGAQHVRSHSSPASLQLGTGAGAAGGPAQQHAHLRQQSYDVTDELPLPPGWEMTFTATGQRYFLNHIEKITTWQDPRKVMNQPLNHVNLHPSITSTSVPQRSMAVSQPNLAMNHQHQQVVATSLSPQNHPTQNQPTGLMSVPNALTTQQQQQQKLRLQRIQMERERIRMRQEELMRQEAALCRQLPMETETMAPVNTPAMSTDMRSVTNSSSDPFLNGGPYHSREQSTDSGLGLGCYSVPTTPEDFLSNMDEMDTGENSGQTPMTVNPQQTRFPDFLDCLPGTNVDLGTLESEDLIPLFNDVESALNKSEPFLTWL
UniProt P46938: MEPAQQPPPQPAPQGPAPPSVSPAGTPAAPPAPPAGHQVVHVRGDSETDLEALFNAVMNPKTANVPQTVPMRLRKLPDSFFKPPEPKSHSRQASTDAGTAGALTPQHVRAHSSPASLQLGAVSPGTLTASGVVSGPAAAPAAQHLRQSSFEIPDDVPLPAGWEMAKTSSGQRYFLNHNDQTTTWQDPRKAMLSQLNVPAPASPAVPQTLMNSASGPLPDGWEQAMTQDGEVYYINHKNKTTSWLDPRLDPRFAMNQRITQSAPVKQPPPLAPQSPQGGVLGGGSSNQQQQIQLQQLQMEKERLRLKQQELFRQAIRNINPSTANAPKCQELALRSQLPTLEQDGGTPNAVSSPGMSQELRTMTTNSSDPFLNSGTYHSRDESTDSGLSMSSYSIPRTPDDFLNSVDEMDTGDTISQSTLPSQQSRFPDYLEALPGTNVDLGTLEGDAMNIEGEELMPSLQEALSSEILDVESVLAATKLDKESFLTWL

These molecules were tested against PRDM16-FLAG (UniProt A2A935) (assay: affinity purification with mass spectrometry; PRDM16-FLAG expressed by lentivirus in beige adipocytes differentiated from scWAT preadipocytes (day 7); lysate precipitated with anti-FLAG agarose beads, SDS-PAGE, gel bands digested with trypsin, LC-MS/MS).

binding, binds:
CtBP1 (from UniProt O88712 1-441)
CtBP2 (from UniProt P56546 1-445)
TAZ (endogenous, mouse) (from UniProt Q9EPK5 1-395)
YAP (endogenous, mouse) (from UniProt P46938 1-488)
B1

— PMC10625615
